A short description of data set [1]: Sensitometry of photothermographic elements, co-developer added to topcoat solution (Examples 1-3).
The nature of data set [2]: Sensitometry of photothermographic elements, co-developer incorporated in the photothermographic emulsion layer (Example 4). The arrangement: key to AC-3 / AC-1 / Speed 2: *: Speed-2, AC-1, and AC-3 were too low to measure.
Where [3] appears, read: 10 mg in 20 g topcoat solution, developed 15 seconds at 255° F.
[4] abbreviates: 89 mg in 20 g topcoat solution, developed 15 seconds at 255° F.
Where [5] appears, read: in 60 g photothermographic emulsion: 0.083 g I-01, 0.030 g CI-01, 0.038 g CI-02, 0.020 g N-Ethyl-rhodanine (sample 4-5).
Setting [6] is: 0.040 g in 60 g photothermographic emulsion (sample 4-6).
Where [7] appears, read: Example 4, in photothermographic emulsion layer.
Where [8] appears, read: 114 mg in 20 g topcoat solution, developed 15 seconds at 255° F.
Setting [9] is: Example 2, in 20 g topcoat solution: 83 mg I-01, 17 mg I-02, 112 mg I-04, 8.8 mg CN-08, 8.0 mg CN-14, developed 15 seconds at 255° F.
Setting [10] is: Example 3, in 20 g topcoat solution: 83 mg I-01, 17 mg I-02, 112 mg I-04, 8.8 mg CN-08, 8.0 mg CN-14, developed 25 seconds at 255° F.

With `CCO/C=C1\SC(=S)N(Cc2ccccc2)C1=O` [CI-01, 5-(Ethoxymethylene)-3-(phenylmethyl)-2-thioxo-4-thiazolidinone, reference compound], in data set [1] (setting [3]), the Dmax turned out to be 2.920, the Dmin is on record as 0.393 and the Speed-2 came to 1.720. For the same compound, in data set [1] (setting [4]), the Dmax is on record as 2.185, the Dmin came out at 0.881 and the Speed-2 was found to be 0.758. In addition, in data set [2] (setting [5]), the AC-3 result is reported as “*”, the Dmax worked out at 2.678 and the Dmin was found to be 0.532.
Consider `CCN1C(=O)CSC1=S` [N-Ethyl-rhodanine], for which, in data set [2] (setting [6]), the AC-1 entry is listed as “*”, the AC-3 result is recorded as “*”, the Dmax turned out to be 4.936 and the Dmin was found to be 4.140. Besides, the “Speed 2” value in data set [2] (setting [6]) was “*”. Also, in data set [2] (setting [7]), the “Dmin (in words; appears to generate a fogging agent)” value is listed as “high” and the “contrast enhancement (in words)” value is given as “no contrast enhancement”. In data set [2] (setting [5]), the AC-1 entry is given as “*”, the AC-3 entry is listed as “*”, the Dmax stood at 4.638 and the Dmin was determined as 3.373. In data set [2] (setting [5]), the “Speed 2” value was “*”.
In data set [1] (setting [8]), `CCO/C=C1\SC(=S)N(CC)C1=O` [CI-02, 5-(Ethoxymethylene)-3-ethyl-2-thioxo-4-thiazolidinone] showed a Dmax of 2.528, a Dmin of 0.862 and a Speed-2 of 1.250. In data set [2] (setting [5]), the AC-1 result is “*”, the AC-3 result is given as “*”, the Dmax stood at 3.062 and the Dmin is on record as 1.005.
In data set [1] (setting [9]), `COC(=O)/C(C#N)=C\[O][NaH2-2]` [CN-14, reference compound] returned a Dmax of 4.753 and a Dmin of 0.179. Moreover, in data set [1] (setting [10]), the Dmax is recorded as 4.987 and the Dmin is listed as 0.201.
As for `CCOC=C1C(=O)c2ccccc2C1=O` [Compound I-01, 2-(Ethoxymethylene)-1H-indene-1,3(2H)-dione], in data set [2] (setting [5]), the Dmax worked out at 4.668 and the Dmin is recorded as 0.180.

The values are drawn from US6387605B1, “Co-developers for black-and-white photothermographic elements” (Eastman Kodak Company, priority 1999, dated 2002).
